For part of these data: Not every detail of the peptide structures is certain; ends, links or a residue may be inferred. For part of these data: At least one structure is not confirmed: it was looked up by name or label, or the drawing left a doubt. Some entries share one result that the patent states for a list of compounds. Numbered stars: 1 amine (or outer) side, 2 acyl side, 3 side chain; on linkers, the order of the positions; unused ones are H or OH. Bridge positions count the residues as written; N and C are the ends. Peptide text beside a SMILES is read from it. I, II: the chains in the order shown. X2 = C[C@@H](CNC(=O)N[C@@H](C)CNC(=O)N[C@@H](C)CNC(=O)N[C@@H](C)CNC(=O)[*:2])NC(=O)NC[C@H](CCC(=O)O)NC(=O)NC[C@H](Cc1ccc(O)cc1)N[*:1]; X6 = CC(CNC(=O)NC(C)CNC(=O)[*:1])NC(=O)NCC(C)N[*:2]
What was measured:
[1] = target: T1, mouse GLP-1 receptor endogenously expressed in βTC6 cells (Mus musculus, UniProt O35659); assay: cAMP production functional assay (HTRF), agonist activity at GLP-1R; assay type: cell-based
T1 construct: host or cells: βTC6 cells
T1 sequence (O35659 22-463): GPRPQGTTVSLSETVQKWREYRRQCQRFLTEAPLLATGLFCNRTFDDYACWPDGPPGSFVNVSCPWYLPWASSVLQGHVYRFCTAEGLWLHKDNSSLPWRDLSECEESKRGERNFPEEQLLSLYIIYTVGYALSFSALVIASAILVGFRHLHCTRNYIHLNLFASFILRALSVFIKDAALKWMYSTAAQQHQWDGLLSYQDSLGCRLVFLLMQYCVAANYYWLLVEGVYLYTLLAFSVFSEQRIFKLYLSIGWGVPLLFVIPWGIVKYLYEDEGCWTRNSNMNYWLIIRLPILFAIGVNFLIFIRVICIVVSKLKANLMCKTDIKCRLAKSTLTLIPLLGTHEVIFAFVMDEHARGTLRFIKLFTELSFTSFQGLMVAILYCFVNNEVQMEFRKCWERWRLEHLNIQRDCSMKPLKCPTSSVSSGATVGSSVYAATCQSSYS
Experimental: The agonistic activity of these hybrids were obtained by functional assays using cells expressing the […] and by measuring the receptor-mediated cAMP produced (see supporting information).
In vitro pharmacology (EC50). […] Following incubation, the cells were lysed and the fluorescence acceptor (D2-labeled cAMP) and fluorescence donor (anti-cAMP antibody labeled with europium cryptate) were added.

db/db mice = assay: Blood glucose experiment in db/db mice; assay type: in vivo, mouse; conditions: single dose 200 μg/kg intra peritoneal

## CC[C@H](C)[C@H](NC(=O)[C@H](Cc1ccccc1)NC(=O)[C@H](CCC(=O)O)NC(=O)[C@H](CCCCN)NC(=O)[C@H](C)NC(=O)[C@H](C)NC(=O)NCC(C)NC(=O)NCC(C)NC(=O)NCC(C)NC(=O)[C@H](Cc1ccc(O)cc1)NC(=O)[C@H](CO)NC(=O)[C@H](CO)NC(=O)[C@@H](NC(=O)[C@H](CC(=O)O)NC(=O)[C@H](CO)NC(=O)[C@@H](NC(=O)[C@H](Cc1ccccc1)NC(=O)[C@@H](NC(=O)CNC(=O)[C@H](CCC(=O)O)NC(=O)CNC(=O)[C@@H](N)Cc1c[nH]cn1)[C@@H](C)O)[C@@H](C)O)C(C)C)C(=O)N[C@@H](C)C(=O)N[C@@H](Cc1c[nH]c2ccccc12)C(=O)N[C@@H](CC(C)C)C(=O)N[C@H](C(=O)N[C@@H](CCCCN)C(=O)NCC(=O)N[C@@H](CCCNC(=N)N)C(=O)NCC(N)=O)C(C)C (stereo partly drawn) [Compound 8, GG2[A^UA^UA^U]^14-17] (I: AAKEFIAWLVKGRG-NH2 / II: H-HGEGTFTSDVSSY; linker I:N-II:C via X6)
[1]; cAMP production, Table 1
  Potency (%), percentage of potency compare to GLP-1-G^2: 0.07%

## CCCCCCCCCCCCCCCC(=O)N[C@@H](CCC(=O)NCCCC[C@H](NC(=O)[C@H](C)NC(=O)[C@H](C)NC(=O)[C@H](CCC(N)=O)NC(=O)CNC(=O)[C@H](CCC(=O)O)NC(=O)[C@H](CC(C)C)NC(=O)[C@H](Cc1ccc(O)cc1)NC(=O)[C@H](CO)NC(=O)[C@H](CO)NC(=O)[C@@H](NC(=O)[C@H](CC(=O)O)NC(=O)[C@H](CO)NC(=O)[C@@H](NC(=O)[C@H](Cc1ccccc1)NC(=O)[C@@H](NC(=O)CNC(=O)[C@H](CCC(=O)O)NC(=O)[C@H](C)NC(=O)[C@@H](N)Cc1cnc[nH]1)[C@@H](C)O)[C@@H](C)O)C(C)C)C(=O)N[C@@H](CCC(=O)O)C(=O)N[C@@H](Cc1ccccc1)C(=O)N[C@H](C(=O)N[C@@H](C)C(=O)N[C@@H](Cc1c[nH]c2ccccc12)C(=O)N[C@@H](CC(C)C)C(=O)N[C@H](C(=O)N[C@@H](CCCNC(=N)N)C(=O)NCC(=O)N[C@@H](CCCNC(=N)N)C(=O)NCC(=O)O)C(C)C)[C@@H](C)CC)C(=O)O [liraglutide]
db/db mice
  activity on blood glucose after 48 h: no more significant activity

## CC[C@H](C)[C@H](NC(=O)[C@H](Cc1ccccc1)NC(=O)NC[C@H](C)NC(=O)NC[C@H](C)NC(=O)NC[C@H](C)NC(=O)NC[C@H](C)NC(=O)NC[C@H](CCC(=O)O)NC(=O)NC[C@H](Cc1ccc(O)cc1)NC(=O)[C@H](Cc1ccc(O)cc1)NC(=O)[C@H](CO)NC(=O)[C@H](CO)NC(=O)[C@@H](NC(=O)[C@H](CC(=O)O)NC(=O)[C@H](CO)NC(=O)[C@@H](NC(=O)[C@H](Cc1ccccc1)NC(=O)[C@@H](NC(=O)CNC(=O)[C@H](CCC(=O)O)NC(=O)CNC(=O)[C@@H](N)Cc1c[nH]cn1)[C@@H](C)O)[C@@H](C)O)C(C)C)C(=O)N[C@@H](C)C(=O)N[C@@H](Cc1c[nH]c2ccccc12)C(=O)N[C@@H](CC(C)C)C(=O)N[C@H](C(=O)N[C@@H](CCCCN)C(=O)NCC(=O)N[C@@H](CCCNC(=N)N)C(=O)NCC(N)=O)C(C)C [Compound 23, GG2[Y^uE^uA^uA^uA^uA^u]^14-21] (I: H-HGEGTFTSDVSSY / II: FIAWLVKGRG-NH2; linker I:C-II:N via X2)
[1]; in vitro
  fold less potent than GLP-1-G^2: at least 10 fold

Source: US11285219B2, “Peptide-oligourea hybrid compounds” (UREKA SARL, priority 2019, dated 2022)
